Source: US20230212239A1, “INHIBITORS OF CBL AUTOINHIBITION AND RELATED METHODS” (THE HOSPITAL FOR SICK CHILDREN, priority 2020, published 2023)
Results are given in words; binding and its absence hold for the method and conditions named. In cells and extracts the contact can be indirect. Some entries that bind do so weakly or less than the wild type. Sequences can lack the tags named with a protein.

How the values were obtained:
[1] = biological target: CBL (47-357), co-expressed from pETDuet-1 MCS2 (UniProt P22681); test: Ni-NTA co-purification, low salt (refers back to FIG. 5E)
[2] = biological target: CBL (47-357), co-expressed from pETDuet-1 MCS2 (UniProt P22681); test: Ni-NTA co-purification, low salt, Coomassie SDS-PAGE (FIG. 5E)
[3] = biological target: CBL (47-357), co-expressed from pETDuet-1 MCS2 (UniProt P22681); test: Ni-NTA co-purification, low salt, Coomassie SDS-PAGE (FIG. 1B)
[4] = biological target: CBL (47-357), co-expressed from pETDuet-1 MCS2 (UniProt P22681); test: Ni-NTA co-purification from Duet co-expression, high salt, Coomassie SDS-PAGE
[5] = biological target: CBL (47-357), co-expressed from pETDuet-1 MCS2 (UniProt P22681); test: Ni-NTA co-purification from Duet-His-mSLAP-CBL, low salt, Coomassie SDS-PAGE (FIG. 5F)

| binding [1] | binding [2] | binding [3] | binding [4] | binding [5] | Binder |
| --- | --- | --- | --- | --- | --- |
| binds | binds | – | – | – | Trx-His(6)-Δlinker-hSLAP2 I249W (protein, not shown: large carriers; small tags and cut ends) EAERSKATAVALGSFPAGGPAELSLRLGEPLTIVSEDGDWWTVLSEVSGREYNIPSVHVAKVSHGWLYEGLSREKAEELLLLPGNPGGAFLIRESQTRRGSYSLSVRLSRPASWDRIRHYRIHCLDNGWLYISPRLTFPSLQALVDHYSELADDICCLLKEPCVLQRAGPLPGKDIPLPVTVQRTPLNWKELDSSLLFSEAATGEESLLSEGLRESLSFYWSLNDEAVSLDDA |
| binds | binds | – | – | – | Trx-His(6)-Δlinker-hSLAP2 R242A (protein, not shown: large carriers; small tags and cut ends) EAERSKATAVALGSFPAGGPAELSLRLGEPLTIVSEDGDWWTVLSEVSGREYNIPSVHVAKVSHGWLYEGLSREKAEELLLLPGNPGGAFLIRESQTRRGSYSLSVRLSRPASWDRIRHYRIHCLDNGWLYISPRLTFPSLQALVDHYSELADDICCLLKEPCVLQRAGPLPGKDIPLPVTVQRTPLNWKELDSSLLFSEAATGEESLLSEGLAESLSFYISLNDEAVSLDDA |
| binds | binds | – | – | – | Trx-His(6)-Δlinker-hSLAP2 S246/250E (protein, not shown: large carriers; small tags and cut ends) EAERSKATAVALGSFPAGGPAELSLRLGEPLTIVSEDGDWWTVLSEVSGREYNIPSVHVAKVSHGWLYEGLSREKAEELLLLPGNPGGAFLIRESQTRRGSYSLSVRLSRPASWDRIRHYRIHCLDNGWLYISPRLTFPSLQALVDHYSELADDICCLLKEPCVLQRAGPLPGKDIPLPVTVQRTPLNWKELDSSLLFSEAATGEESLLSEGLRESLEFYIELNDEAVSLDDA |
| – | – | binds | binds | – | Trx-His(6)-Δlinker-hSLAP2 (human SLAP2 29-261) (protein, not shown: large carriers; small tags and cut ends) EAERSKATAVALGSFPAGGPAELSLRLGEPLTIVSEDGDWWTVLSEVSGREYNIPSVHVAKVSHGWLYEGLSREKAEELLLLPGNPGGAFLIRESQTRRGSYSLSVRLSRPASWDRIRHYRIHCLDNGWLYISPRLTFPSLQALVDHYSELADDICCLLKEPCVLQRAGPLPGKDIPLPVTVQRTPLNWKELDSSLLFSEAATGEESLLSEGLRESLSFYISLNDEAVSLDDA |
| – | – | – | – | binds | Trx-His(6)-mSLAP (mouse SLAP 19-254) (protein, UniProt Q60898 19-254, looked up, not shown: large carriers) SEGLESDFLAVLTDYPSPDISPPIFRRGEKLRVISDEGGWWKAISLSTGRESYIPGICVARVYHGWLFEGLGRDKAEELLQLPDTKIGSFMIRESETKKGFYSLSVRHRQVKHYRIFRLPNNWYYISPRLTFQCLEDLVTHYSEVADGLCCVLTTPCLAQNIPAPTSHPSPCTSPGSPVTLRQKTFDWKRVSRLQEGSEGAENPLRVDESLFSYGLRESIASYLSLTGDDSSSFDR |
